Taken from: PubChem BioAssay AID1224830 (NIAID, 2016)
Test: 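Host factors that control LPS-induced TNF expression in human macrophages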 (primary screen). Cell system: human THP-1 monocytic leukaemia cells, TNF dual-luciferase reporter clone, PMA-differentiated to macrophage-like cells. Reagents: siRNA pool against human genes, 50 nM. Duration: LPS for 4 h, given about 3 days after siRNA transfection. Challenge: bacterial LPS (TLR4 ligand), 10 ng/ml. Detection: 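Ratio of firefly to renilla light, scaled to the plate median and expressed as a robust z-score per replicate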. Direction: TNF reporter robust z-score: higher = stronger TNF reporter response to LPS. Rule for the call: 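a well is active when its z-score exceeds 2.8 or falls below -1.5; control wells carry no call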.
The whole screen tested about 18,000 reagents; shown is a part drawn at random. About 2,900 of all reagents (16%) were called active. 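Calls are made per well; low scores hint the gene aids the LPS response, high scores that it dampens it.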 The numbers tell different reagents against one gene apart. Repeated entries: four replicate wells of each siRNA pool. No sequences are given here.

gene knocked down	reagent no.	TNF reporter robust z-score	call
CD160	1	1.18	inactive
CD160	1	-0.37	inactive
CD160	1	0.93	inactive
CD160	1	2.11	inactive
ATG14	1	-0.48	inactive
ATG14	1	0.47	inactive
ATG14	1	-1.45	inactive
ATG14	1	0.03	inactive
DDX25	1	-0.25	inactive
DDX25	1	0.47	inactive
DDX25	1	-0.04	inactive
DDX25	1	0.3	inactive
CHCHD1	1	-0.69	inactive
CHCHD1	1	1.15	inactive
CHCHD1	1	1.29	inactive
CHCHD1	1	0.36	inactive
TRPC1	1	-0.02	inactive
TRPC1	1	1.2	inactive
TRPC1	1	0.91	inactive
TRPC1	1	1.06	inactive
MGAT4D	1	0.43	inactive
MGAT4D	1	0.93	inactive
MGAT4D	1	1.63	inactive
MGAT4D	1	2.59	inactive
SPATA46	1	0.54	inactive
SPATA46	1	0.11	inactive
SPATA46	1	-0.01	inactive
SPATA46	1	-0.04	inactive
PHKA2	1	1.08	inactive
PHKA2	1	0.83	inactive
PHKA2	1	0.88	inactive
PHKA2	1	2.57	inactive
FERMT2	1	-0.25	inactive
FERMT2	1	-0.36	inactive
FERMT2	1	-0.52	inactive
FERMT2	1	0	inactive
ZYG11B	1	2.12	inactive
ZYG11B	1	1.81	inactive
ZYG11B	1	-0.29	inactive
ZYG11B	1	1.36	inactive
FADS6	1	-0.96	inactive
FADS6	1	0.12	inactive
FADS6	1	-0.37	inactive
FADS6	1	-0.28	inactive
TRAF2	1	-0.26	inactive
TRAF2	1	-0.29	inactive
TRAF2	1	-0.71	inactive
TRAF2	1	-0.59	inactive
ATM	1	-0.9	inactive
ATM	1	-1.11	inactive
ATM	1	-0.34	inactive
ATM	1	-0.39	inactive
RABEP2	1	0.34	inactive
RABEP2	1	0.06	inactive
RABEP2	1	0.37	inactive
RABEP2	1	1.16	inactive
C1D	1	-0.36	inactive
C1D	1	0.43	inactive
C1D	1	0.24	inactive
C1D	1	0.14	inactive
DIRAS2	1	1.1	inactive
DIRAS2	1	0.25	inactive
DIRAS2	1	1.23	inactive
DIRAS2	1	1.51	inactive
NEBL	1	-0.64	inactive
NEBL	1	-0.99	inactive
NEBL	1	-0.7	inactive
NEBL	1	-0.45	inactive
NEBL	2	1.02	inactive
NEBL	2	-0.67	inactive
NEBL	2	-0.41	inactive
NEBL	2	0.91	inactive
PCDHB15	1	-0.53	inactive
PCDHB15	1	0.08	inactive
PCDHB15	1	0.2	inactive
PCDHB15	1	0.01	inactive
